Data published in PubChem BioAssay AID1471 (National Center for Advancing Translational Sciences (NCATS), 2008).
Where “and” joins values, the source holds several entries; their conditions need not be identical. Equal values may be shown once. In all, about 230,000 compounds went through this assay and about 310 (0.13%) were called active. The shares of active, inactive and inconclusive entries below differ from those in the screen. The call rests on the fitted dose curve; in most records, active means well fitted activation curve with a large enough effect; inconclusive means small, poorly fitted or top-dose-only effect; inactive means no such curve, though single readings can be large or run the other way. Potencies of inconclusive entries are doubtful fits and often do not repeat.

assay: qHTS Multiplex Assay to Identify Dual Action Probes in a Cell Model of Huntington: Cytoprotection (ATP); settings: PC12 HTT-Q103 induced, ATP luminescence, 40 h; cytoprotection (ATP increase): at 56.4 µM (top of the series) unless noted; further: nearly all actives have a fitted effect of over 45% in size;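 on cytoprotection (ATP increase): toxic huntingtin expression switched on by the ecdysone agonist tebufenozide; % of control where 0% means no effect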
Method in brief: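 Compounds were screened for protection of PC12 cells against cell death after tebufenozide induction (100 nM final) of mutant Huntingtin exon 1 (Q103) fused to GFP.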
Potency means the concentration at half of the fitted maximal effect.

| Structure (SMILES) | cytoprotection (ATP increase) | Potency |
| --- | --- | --- |
| CCc1nnc(NC(=O)CSc2nc(-c3ccccc3)nc3ccccc23)s1 | inactive: 17.7% [at 10 µM] | – |
| CCCc1nnc(SCc2ccc(C(=O)OC)o2)n1N | – | inconclusive: 12.6 µM [activator, single point] |
| CC1CCCCN1C(=O)COC(=O)/C=C/c1ccc2ccccc2n1 (configuration not stated) | – | inconclusive: 31.6 µM [activator, single point] |
| CC(C)C[C@H](NC(=O)c1nc[nH]c1C(=O)N(C)Cc1ccccc1)C(=O)OC(C)(C)C | inactive: -4.6% [at 10 µM] | – |
| CC1CN(c2ncnc3c2cnn3-c2ccc(Cl)cc2)CC(C)O1 (configuration not stated) | – | inconclusive: 1.26 µM [activator, single point] |
| C/C(=N\NC(=O)CC#N)c1cc2ccccc2oc1=O | – | inconclusive: 0.708 µM [activator, single point] |
| OC(CC#CCN1CCCC1)(c1ccccc1)c1ccccc1 | – | inconclusive: 0.501 µM [activator, partial curve] |
| Cc1nn(C)cc1NC(=O)CC12CC3CC(CC(C3)C1)C2 | – | inconclusive: 0.501 µM [activator, partial curve] |
| CCN(CC)CCOC(=O)c1ccc(NC(=O)c2ccc(Cl)c(S(=O)(=O)N3CCCCCC3)c2)cc1 | inactive: -3.97% [at 10 µM] | – |
| CCOC(=O)c1sc(NC(=O)CSc2nc(C)cc(-c3ccccc3)n2)c(C#N)c1C | inactive: 13.2% [at 10 µM] | – |
| Cc1cccc(NC(=O)/C(C#N)=C\c2cn(CC(=O)O)c3ccccc23)c1 | inactive: -10.3% | – |
| CN1/C(=C\C(=O)CSc2nnc(N)s2)C(C)(C)c2ccccc21 | – | inconclusive: 0.112 µM [activator, full curve, poor fit] |
| CCCN1C[C@H](CSC)C[C@H]2c3cccc4[nH]cc(c34)C[C@@H]21 | – | inconclusive: 15.8 µM [activator, single point] |
| O=[N+]([O-])c1cnn(-c2nc(-c3cccs3)cc(C(F)(F)F)n2)c1 | inactive: -5.31% [at 10 µM] | – |
| Cc1cc(C)n(C(=O)CCCn2cc([N+](=O)[O-])cn2)n1 | – | inconclusive: 3.55 µM [activator, single point] |
| O=C(NN1C(=O)C2C3C=CC(C3)C2C1=O)C(O)c1ccccc1 (configuration not stated) | – | inconclusive: 35.5 µM [activator, single point] |
| CC(C)OCCCN1C=C2C(=O)C(C)(OC(=O)C3CCCC3)C(=O)C=C2C=C1c1ccsc1 (configuration not stated) | inactive: -17.3% [at 10 µM] | – |
| CCCS(=O)(=O)c1ccc(COC(=O)c2ccc(NC(C)=O)cc2)cc1 | inactive: 9.76% | – |
| CC(CNS(=O)(=O)c1ccccc1)(c1ccccc1)N1CCCCC1 (configuration not stated) | inactive: 15.4% [at 10 µM] | – |
| C=C(C)C(=O)OCC1CN2C(CCC(C)C2c2ccc(Br)cc2)C(=O)O1 (configuration not stated) | – | inconclusive: 178 nM [activator, full curve, poor fit] and inconclusive: 112 nM [activator, full curve, poor fit] |
| CCOc1cccc(C(=O)NC(=S)Nc2cccc(NC(=O)c3ccccc3Cl)c2)c1 | – | inconclusive: 1.26 µM [activator, single point] |
| CN(C(=O)CSc1ncc(C(F)(F)F)cc1Cl)c1c(N)n(Cc2ccccc2)c(=O)[nH]c1=O | – | inconclusive: 1.58 µM [activator, partial curve] |
| COc1ccc(CNC(=O)[C@H](C)[C@@H]2C[C@@]2(C)[C@@H](NC(=O)OCc2ccccc2)c2ccccc2)cc1OC | inactive: -11.4% | – |

| Structure (SMILES) | cytoprotection (ATP increase) | Potency |
| --- | --- | --- |
| CCCC(=O)Nc1ccc(C(=O)NNC(=O)c2cccc([N+](=O)[O-])c2)cc1 | inactive: 24% [at 10 µM] | – |
| Cn1c(=O)c2c(ncn2C[C@@H](O)CO)n(C)c1=O | – | inconclusive: 0.224 µM [activator, full curve, poor fit] |
| COc1ccc(OC)c(N/C=C/C(=C(C#N)C#N)N(C)C)c1 | – | inconclusive: 0.355 µM [activator, partial curve, poor fit] |
| Cc1c(NC(=O)COC(=O)C23CC4CC(CC(O)(C4)C2)C3)c(=O)n(-c2ccccc2)n1C | – | inconclusive: 1 µM [activator, partial curve, poor fit] |
| COc1ccccc1N1CCN(c2ccc(Cl)nn2)CC1 | – | inconclusive: 0.891 µM [activator, full curve, poor fit] |
| Cc1cscn1 | – | inconclusive: 12.6 µM [activator, full curve, poor fit] |
| Cc1cc(Cl)cc(Br)c1OCCCCn1cncn1 | – | inconclusive: 0.708 µM [activator, single point] |
| CSc1ccc(-c2c(C#N)c(N)nc3c2CCCC3)cc1 | – | inconclusive: 0.1 µM [activator, full curve, poor fit] |
| CC(C)(C)c1cc(OC(=O)c2ccncc2)ccc1O | – | inconclusive: 2.82 µM [activator, single point] |
| COCCNc1ccnc(-c2c(C)noc2C)n1 | inactive: -4.44% | – |
| N#Cc1cc(-c2ccccc2)oc1/N=C/c1ccccc1O | – | inconclusive: 0.891 µM [activator, single point] |
| NCc1ccc(S(N)(=O)=O)cc1 | – | inconclusive: 0.158 µM [activator, single point] |
| N/C(=N\OC(=O)c1ccc(Cl)cc1Cl)c1ccc(Cl)cc1 | inactive: -35.2% | – |
| CCOC(=O)c1c(C)[nH]c(=S)c(C#N)c1-c1ccccc1 | – | inconclusive: 5.62 µM [activator, single point] |
| Cc1ccc(/C=C2\SC(=S)N(CCCC(=O)Nc3nccs3)C2=O)cc1 | – | inconclusive: 5.62 µM [activator, single point] |
| COc1ccc(Oc2ncc3nc(-c4cccs4)c(=O)n(Cc4cccs4)c3n2)cc1 | – | inconclusive: 31.6 µM [activator, single point] |
| Cn1c(Cc2ccccc2)nnc1SCC(=O)NC1CCCCC1 | inactive: -4.23% | – |
| Cc1[nH]nc2ncc(C(=O)c3cc(Cl)cc(Cl)c3O)cc12 | – | inconclusive: 3.55 µM [activator, partial curve] |
| O=C(NN=C1CCC(c2ccccc2)CC1)c1ccccc1-n1cccc1 (configuration not stated) | – | inconclusive: 2.51 µM [activator, single point] |
| Cc1ccccc1OCC(=O)N/N=C/c1ccc(Sc2nc3ccccc3s2)o1 | inactive: -8.34% | – |
| N#CC(C(=O)NCc1ccco1)c1nc2ccccc2nc1N1CCOCC1 (configuration not stated) | – | inconclusive: 1.26 µM [activator, single point] |
| Cc1cc(N2CCCCC2)nc(SCc2ccc(C#N)cc2)n1 | inactive: 13.8% [at 10 µM] | – |
| O=C(NC(=S)Nc1ccccc1N1CCCC1)c1ccc(F)cc1 | inactive: -5.3% | – |

| Structure (SMILES) | cytoprotection (ATP increase) | Potency |
| --- | --- | --- |
| Cc1c2cnn(CC(=O)Nc3cccc(C(F)(F)F)c3)c(=O)c2c(C)n1Cc1ccccc1F | – | inconclusive: 5.62 µM [activator, single point] |
| CO/N=C(\C(=O)N[C@@H]1C(=O)N2C(C(=O)O)=C(COC(C)=O)CS[C@@H]12)c1csc(N)n1 | – | inconclusive: 0.0501 µM [activator, full curve, poor fit] |
| Cc1ccsc1/C=N/NC(=O)C1CC(=O)N(c2ccccc2)C1 (configuration not stated) | – | inconclusive: 3.16 µM [activator, partial curve] |
| O=C(O)C(O)[C@@](O)(Cc1ccc(O)cc1)C(=O)O (some centres not stated) | – | inconclusive: 3.55 µM [activator, single point] |
| Cc1ccccc1CN(c1ccc(C(=O)Nc2cccnc2)cc1)S(C)(=O)=O | inactive: 4.76% | – |
| COc1ccc(/C=C/C(=O)c2ccc(OC)cc2OC)cc1 | – | inconclusive: 5.62 µM [activator, full curve, poor fit] |
| OC(CNC1CCCc2ccccc21)COc1c(Cl)cccc1Cl (configuration not stated) | – | inconclusive: 0.631 µM [activator, partial curve] |
| CC(C)(C)C(=O)C(Oc1cccc2nonc12)n1cncn1 (configuration not stated) | inactive: -7.75% [at 0.074 µM] | – |
| COCCNC(=O)CCc1nnc(C2(c3ccc(Cl)cc3)CCC2)o1 | – | inconclusive: 5.62 µM [activator, single point] |
| CCNC(=O)C1CCN(S(=O)(=O)c2ccc(F)cc2)CC1 | inactive: -15.5% [at 10 µM] | – |
| N#C/C(=C1/C(=O)Nc2ccc(Br)cc21)c1ccccn1 | – | inconclusive: 31.6 µM [activator, single point] |
| COc1ccc(Cn2c(O)c(C=Nc3ccc(C)cc3)c3ccccc3c2=O)cc1 | – | inconclusive: 0.708 µM [activator, single point] |
| CC1CCCC(C)N1C(=O)Cc1ccccc1 (configuration not stated) | inactive: -1.26% | – |
| COCC(=O)N1CCC2(CC1)CCN(c1cccc(-c3ccccc3)c1)CC2 | – | inconclusive: 0.708 µM [activator, full curve] |
| C=C(C)C(O)/C=C/C=C/c1ccccc1 (configuration not stated) | – | inconclusive: 0.891 µM [activator, full curve, poor fit] |
| O=C(O)c1nc(N2CCCC2)ncc1Cl | – | inconclusive: 0.631 µM [activator, single point] |
| COc1ccc(-c2nc3cnc(N4CCNCC4)nc3n(CCc3ccccc3)c2=O)cc1 | – | inconclusive: 0.631 µM [activator, full curve, poor fit] |
| CN1CCC[C@@H]1CCO[C@](C)(c1ccccc1)c1ccc(Cl)cc1 | – | inconclusive: 31.6 µM [activator, single point] |
| CCCC1C(c2ccc(OC)cc2)C(C#N)(C#N)C2(C#N)CC1(N)NC2=O (configuration not stated) | – | inconclusive: 1 µM [activator, single point] |
| COC(=O)c1ccccc1OCCCCN1CC(C)OC(C)C1 (configuration not stated) | – | inconclusive: 1.26 µM [activator, single point] |
| CCOc1ccc(NC(C)=O)cc1 | – | inconclusive: 0.398 µM [activator, full curve] |

One compound at a time, from the list above. Order of values: cytoprotection (ATP increase)	Potency
`Cc1ccsc1/C=N/NC(=O)C1CC(=O)N(c2ccccc2)C1` (configuration not stated) is entered as –	inconclusive: 3.16 µM [activator, partial curve]
`Cc1ccccc1CN(c1ccc(C(=O)Nc2cccnc2)cc1)S(C)(=O)=O` is entered as inactive: 4.76%	–
`COc1ccc(Cn2c(O)c(C=Nc3ccc(C)cc3)c3ccccc3c2=O)cc1` is entered as –	inconclusive: 0.708 µM [activator, single point]
`N#C/C(=C1/C(=O)Nc2ccc(Br)cc21)c1ccccn1` is entered as –	inconclusive: 31.6 µM [activator, single point]
